Experimental data as given in article PMC6557631.
These are yes or no findings as the source states them, for the method shown. Binding seen in cells or lysates may run through a third protein. Some entries that bind do so weakly or less than the wild type.

By UniProt entry, the sequences of proteins in these tests, tags left out. Where a name states a change or a piece, a line headed by the entry shows the natural chain unless it says otherwise.
UniProt P03101: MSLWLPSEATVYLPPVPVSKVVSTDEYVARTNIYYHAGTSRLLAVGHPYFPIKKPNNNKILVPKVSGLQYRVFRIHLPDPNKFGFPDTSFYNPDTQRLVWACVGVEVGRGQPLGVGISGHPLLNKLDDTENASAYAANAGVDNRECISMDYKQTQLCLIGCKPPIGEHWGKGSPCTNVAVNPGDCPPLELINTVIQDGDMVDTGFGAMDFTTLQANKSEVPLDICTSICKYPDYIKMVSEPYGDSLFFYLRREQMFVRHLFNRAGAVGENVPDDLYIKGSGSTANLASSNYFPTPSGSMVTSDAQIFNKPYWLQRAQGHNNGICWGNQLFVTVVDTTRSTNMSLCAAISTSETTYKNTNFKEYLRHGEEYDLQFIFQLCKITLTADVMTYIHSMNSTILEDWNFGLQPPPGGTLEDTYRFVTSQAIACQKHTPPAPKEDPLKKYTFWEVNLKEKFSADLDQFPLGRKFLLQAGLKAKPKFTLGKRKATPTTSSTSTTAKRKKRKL

Molecular target: T1, tetraspanin CD151 (human (endogenous in HaCaT)) (UniProt P48509)
T1 sequence: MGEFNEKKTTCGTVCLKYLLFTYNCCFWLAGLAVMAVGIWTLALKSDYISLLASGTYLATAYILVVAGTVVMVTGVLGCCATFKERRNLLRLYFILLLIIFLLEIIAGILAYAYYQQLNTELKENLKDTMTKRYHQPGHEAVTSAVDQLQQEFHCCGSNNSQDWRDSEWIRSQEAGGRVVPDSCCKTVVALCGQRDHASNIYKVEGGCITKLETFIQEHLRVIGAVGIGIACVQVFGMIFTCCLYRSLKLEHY
Assay: proximity ligation; Duolink PLA on fixed HaCaT cells incubated with HPV16 PsVs for 5 hr; primary antibodies anti-CD151 mAb 11G5A and anti-L1 pAb K75; cells treated with control or ADAM17 siRNA, with or without EGF (20 ng/ml) pre-treatment; only the binder purified

HPV16 pseudovirions (PsVs) (from UniProt P03101 1-505; P03107 1-473) (complex)
binding: binds
